Literature values, collected in patent US12097235B2, “Anti-acne pharmaceutical compositions” (priority 2018, dated 2024).
For at least one compound, name, drawing or mass did not settle the structure.

The chains behind the UniProt entries cited, without tags or fusion partners. Residues count along the entry.
UniProt P41245, 108-730: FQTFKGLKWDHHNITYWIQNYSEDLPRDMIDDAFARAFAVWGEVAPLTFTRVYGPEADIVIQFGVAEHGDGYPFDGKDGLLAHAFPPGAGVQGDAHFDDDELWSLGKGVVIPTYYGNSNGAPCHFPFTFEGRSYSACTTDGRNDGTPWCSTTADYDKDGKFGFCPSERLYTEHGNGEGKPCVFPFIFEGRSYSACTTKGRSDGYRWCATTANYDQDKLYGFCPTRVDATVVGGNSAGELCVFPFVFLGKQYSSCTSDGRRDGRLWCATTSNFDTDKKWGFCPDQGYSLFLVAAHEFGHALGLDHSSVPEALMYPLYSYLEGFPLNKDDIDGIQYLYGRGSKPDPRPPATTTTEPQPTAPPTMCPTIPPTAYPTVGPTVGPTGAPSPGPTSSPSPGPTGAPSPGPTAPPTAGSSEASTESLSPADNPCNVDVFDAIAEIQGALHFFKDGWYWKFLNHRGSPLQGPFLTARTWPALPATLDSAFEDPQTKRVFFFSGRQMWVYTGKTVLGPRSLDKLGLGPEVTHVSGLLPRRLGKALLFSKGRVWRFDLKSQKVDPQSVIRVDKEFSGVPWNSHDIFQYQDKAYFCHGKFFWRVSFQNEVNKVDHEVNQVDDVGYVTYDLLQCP

Biological target: MMP-9 enzyme (Mus musculus, UniProt P41245)
Conditions: at 100 μg/ml; cited from earlier work

CN(C)[C@@H]1C(O)=C(C(N)=O)C(=O)[C@@]2(O)C(O)=C3C(=O)c4c(O)cccc4[C@@](C)(O)[C@H]3C[C@@H]12 [tetracycline]
inhibition of the MMP-9 enzyme: 38.91%
